# Experimental data: article PMC12040169 (PLOS Biology, 2025)
# Where two headings read alike, the source gives them in different places. This is one part of the list.
# System: T1, CTL2-GFP (C. trachomatis L2/434/Bu, GFP-expressing)
# T1 construct: L2/434/Bu, GFP-expressing
# Design: species or system HeLa; Intracellular C. trachomatis growth in HeLa cells, bulk GFP fluorescence relative to DMSO
# Settings: bulk GFP, single well, 28.5 h, 10 µM, inhibitor
Structure (SMILES),% of control remaining,% of control remaining (Bulk GFP fluorescence)
O=C(O)CCC(=O)Nc1ccc(-c2nc3cc(C(=O)c4ccccc4)ccc3[nH]2)cc1 [CBK267401],102.954%,–
CN1CCC(N(C)C(=O)NCc2ccc(C#N)cc2)C1 (stereo not shown) [CBK156005],115.916%,–
COc1cccc(C(NC(=O)C2COc3ccc(OC)cc3C2)c2ccccc2)c1 (stereo not shown) [CBK285713],109.327%,–
Cc1cc(OCc2nnc(SCC(=O)N3CCN(c4ccccc4)CC3)n2C)ccc1Cl [CBK268611],139.627%,–
O=C(O)[C@@H]1CC(O)CN1C(=O)c1ccc2noc(-c3ccccc3)c2c1 (stereo partly shown) [CBK286736],111.681%,–
CC(=O)Oc1ccc2c(=O)cc(N(C)C)oc2c1C [CBK016581],168.963%,–
Nc1ccc(-c2cccc(C(F)(F)F)c2)c2ccccc12 [CBK084324],93.7339%,–
O=C(CN1C(=O)C2CCC(c3ccccc3)CC2C1=O)Nc1cccc2ccccc12 (stereo not shown) [CBK268061],122.319%,–
CCOC(=O)C1CCCN(Cc2nc(-c3ccc(F)cc3F)oc2C)C1 (stereo not shown) [CBK306749],103.487%,–
c1ccc(CC2CCN(CCOc3ccccc3)CC2)cc1 [CBK126433],107.872%,–
Cc1cccc(C)c1NC(=O)CN1CCN(c2nccnc2OC2CCCCC2)CC1 [CBK082835T],108.726%,–
S=C(Nc1cccc(Cl)c1Cl)Nc1nn(Cc2ccc(Cl)c(Cl)c2)cc1Cl [CBK267109],145.053%,–
CN(C)CCOC1OC(CO)C(O)C(O)C1O (stereo not shown) [CBK012476C],104.872%,–
CC(C)(C)NC(=O)c1cccc(N2C(=O)c3ccc(C(=O)O)cc3C2=O)c1 [CBK287123],128.888%,–
COC(=O)c1ccc(N2CCN(Cc3nc(C)no3)C(C)C2)cc1 (stereo not shown) [CBK305998],110.588%,–
O=C(N/N=C/c1ccc(Cl)cc1Cl)c1nc(-c2ccccc2)cc(-c2ccccc2)n1 [CBK262814],110.42%,–
CC(=O)Nc1nn(Cc2cc3c(cc2Cl)OCO3)c2ccccc12 [CBK048251],100%,–
CCc1cccc(C)c1NC(=O)C1C2CCC(O2)C1C(=O)O (stereo not shown) [CBK263676],119.48%,–
COc1ccc(S(=O)(=O)NCCNC(=O)c2cc(-c3cccc(S(C)(=O)=O)c3)cnc2NCC2CC2)cc1 [CBK076425],104.973%,–
CN1CCC[C@H]1C(=O)Nc1cccc2cc[nH]c12 [CBK160098],134.704%,–
O=C(NCCCc1ccccn1)C1(c2ccccc2F)CC1 [CBK283155],97.91%,–
c1cncc(COc2cncc(OC3CCN(Cc4ccc5c(c4)OCO5)C3)n2)c1 (stereo not shown) [CBK084458],100%,–
Cc1cccc(OC(=O)C2C(c3ccccc3)C(C(=O)O)C2c2ccccc2)c1 (stereo not shown) [CBK263843],110.784%,–
O=C(Nc1ccc(S(=O)(=O)Nc2nccs2)cc1)C1CC(=O)N(c2ccccc2)C1 (stereo not shown) [CBK264732],29.6109%,–
COc1cc(Cl)cc(/C=N/Nc2nc(Nc3ccc(C)c(Cl)c3)nc(N3CCOCC3)n2)c1O [CBK262436],100%,–
CN1CCN(S(=O)(=O)c2ccc(-c3cc(C(F)(F)F)on3)s2)CC1 [CBK057780],110.778%,–

Structure (SMILES),% of control remaining,% of control remaining (Bulk GFP fluorescence)
Cc1nn(C)c(Cl)c1S(=O)(=O)Nc1cccc(-c2nnn[nH]2)c1 [CBK062127],114.817%,–
O=C(Nc1cccc(F)c1)N(Cc1cccnc1)CC1CCCO1 (stereo not shown) [CBK304065],88.579%,–
CC(C)c1noc(N2CCC(Oc3ccc(-c4ccc(S(C)(=O)=O)cc4)cn3)CC2)n1 [CBK158821],75.3558%,–
COc1ccc(CCN2C(=O)c3ccccc3C2(O)c2ncc[nH]2)cc1OC (stereo not shown) [CBK262717],97.407%,–
Cc1cccc(C(=O)Nc2ccccc2C(=O)N2CCN(C)CC2)c1 [CBK268565],128.687%,–
O=C(NC(NCc1ccco1)C(Cl)(Cl)Cl)c1ccc(Br)cc1 (stereo not shown) [CBK262174],94.014%,–
COCCNC(=O)c1cc(-c2ccc(Cl)cc2)cnc1NS(C)(=O)=O [CBK106421],100%,–
OC1(c2cccnc2F)CCN(Cc2c(F)cccc2F)CC1 [CBK283149],89.5052%,–
Cc1ccc(S(=O)(=O)NCC(=O)Nc2ccc(Cl)nc2)cc1 [CBK091355],115.576%,–
O=c1[nH]c2ncc(-c3ccsc3)nc2n1CC1CCOCC1 [CBK064293],186.121%,–
CS(=O)(=O)N1CC2(CCN(CCCC#N)CC2)c2ccccc21 [CBK084014],112.67%,–
COc1ccc(C2C(C(C)=O)=C(O)C(=O)N2CCCC(=O)O)cc1 (stereo not shown) [CBK263774],100%,–
COc1ccc2c(c1)N1CCCN=C1N2C [CBK011358C],135.842%,–
COc1ccc([N+](=O)[O-])cc1COc1ccc2c(C(F)(F)F)cc(=O)oc2c1 [CBK265173],119.355%,–
Cc1cc(-c2ccccc2)nc(SCC(=O)Nc2nnc(C)s2)n1 [CBK058194],123.006%,–
CC(Sc1nc(C2CC2)n(-c2ccccc2)n1)C(=O)N1CCNC1=O (stereo not shown) [CBK297144],153.092%,–
O=C(Nc1cccnc1)c1cnc2cc(C(F)(F)F)ccc2c1O [CBK107474T],–,110.979%
Cc1ccc(CN(CCCN(C)C)Cc2cccc(O)c2)o1 [CBK283173],84.5986%,–
COc1ccc(-c2noc(CNC(=O)Nc3ccc(F)cc3)n2)cc1OC [CBK269784],122.898%,–
O=C(Nc1cccc(C(=O)O)c1)/C(=C\c1ccc2c(c1)OCO2)NC(=O)c1ccccc1Cl [CBK263746],100%,–
CCn1c2c(c(=O)[nH]c1=O)C(c1ccccc1)C1=C(COC1=O)N2 (stereo not shown) [CBK287704],122.171%,–
CC(C)OC(=O)c1cccnc1N1CCN(CCCC(c2ccc(F)cc2)c2ccc(F)cc2)CC1 [CBK025340C],103.659%,–
CCCc1cc(=O)nc(N/C(=N\C(=O)c2ccccc2)Nc2ccc3c(c2)OCCO3)[nH]1 [CBK266485],88.077%,–
CCc1c(C)nc2c(C(=O)NCCCOC)cnn2c1C [CBK162149],128.043%,–
O=C(NC(c1ccc(-c2ccccc2)cc1)c1cnccn1)C1CCN(CCc2ccc(F)cc2)CC1 (stereo not shown) [CBK147981],124.095%,–
Cc1ccc(S(=O)(=O)NC(C)C(=O)Nc2cc(-c3nc4ccccc4[nH]3)ccc2C)cc1 (stereo not shown) [CBK110320],117.342%,–

# Copied from the results shown (two entries):
Structure (SMILES),% of control remaining,% of control remaining (Bulk GFP fluorescence)
COc1ccc(C2C(C(C)=O)=C(O)C(=O)N2CCCC(=O)O)cc1 (stereo not shown) [CBK263774],100%,–
COc1ccc2c(c1)N1CCCN=C1N2C [CBK011358C],135.842%,–

# Single entries from the entries so far:
# For % of control remaining (Bulk GFP fluorescence), O=C(Nc1cccnc1)c1cnc2cc(C(F)(F)F)ccc2c1O [CBK107474T] reads 110.979%
# For % of control remaining, O=C(CN1C(=O)C2CCC(c3ccccc3)CC2C1=O)Nc1cccc2ccccc12 (stereo not shown) [CBK268061] reads 122.319%

# The listing continues:

Structure (SMILES),% of control remaining,% of control remaining (Bulk GFP fluorescence)
CCOC(=O)c1cnn2c(O)cc(CN(Cc3cccs3)C3CC3)nc12 [CBK305625],138.816%,–
COc1ccc(-c2nnc([C@H]3CCN(C(=O)C4CC4)C3)o2)cc1 [CBK289409],111.506%,–
CCCCCn1c(Cc2ccccc2)n[nH]c1=O [CBK013059],135.008%,–
CC(C(=O)N1CCC(O)(c2ccccn2)CC1)c1ccccc1 (stereo not shown) [CBK282396],160.905%,–
CCCCOc1ccc(-c2nnn(CC(=O)Nc3ccccc3)n2)cc1 [CBK070609],106.305%,–
COc1ccc(Br)cc1C1CC(=O)Nc2c(-c3cccc(F)c3)csc21 (stereo not shown) [CBK294442],23.7031%,–
CC(O)CNCCNc1c(Cl)cccc1[N+](=O)[O-] (stereo not shown) [CBK262802C],118.104%,–
CCOC(=O)c1c(-c2ccc(C)o2)csc1NC(=O)CN1C(=O)c2ccccc2C1=O [CBK267699],136.069%,–
COC(=O)CCc1ccc(S(=O)(=O)N2CCN(Cc3cc(C)c(O)c(C)c3)CC2)cc1 [CBK062814],123.087%,–
Cc1c(Nc2nc3nonc3nc2Nc2cccc(Cl)c2)c(=O)n(-c2ccccc2)n1C [CBK263073],103.703%,–
CCN(CC)C(=O)c1sccc1NS(=O)(=O)c1cc(Br)c(Cl)s1 [CBK004599],73.2066%,–
N#Cc1ccc(Oc2ccc(C(=O)C(=O)c3ccccc3)cc2)cc1C#N [CBK260959],84.0959%,–
O=C(NC(=S)Nc1cccc(-c2nc3ncccc3o2)c1)c1cc([N+](=O)[O-])ccc1N1CCOCC1 [CBK268756],118.217%,–
COc1ccc(CN2CCCN(C(=O)c3ccc(F)cc3Br)CC2)cc1 [CBK251752],93.9788%,–
Cc1cccc(C)c1NC(=O)CN1CCC(Oc2cncc(OCc3cccnc3)n2)C1 (stereo not shown) [CBK084460],97.3821%,–
COC(=O)[C@H]1CN(C(=O)c2ccco2)C[C@@H]1c1ccc(F)cc1 [CBK283733],120.858%,–
COc1ccc2cc(C(=O)N3CCn4cncc4C3)n(C)c2c1 [CBK304362],109.921%,–
CCC(CO)NCc1ccc(-c2ccccc2)cc1 (stereo not shown) [CBK268082C],113.096%,–
CN(C)C(CNCc1cn(C)nc1-c1cccnc1)c1ccccc1 (stereo not shown) [CBK304511],133.668%,–
CCC(C)Nc1nc(SCC(=O)OC)nc(N(C)C)n1 (stereo not shown) [CBK269780],117.941%,–
CC(=O)NC[C@H]1CN(c2ccc3c(c2)CCN(C(C)=O)CC3)C(=O)O1 [CBK018491],10.4848%,–
COc1ccc([C@@]23CC[C@@H](NC(=O)c4ccc(C(F)(F)F)c(F)c4)C[C@@H]2CN(C)C3)cc1OC [CBK082742C],120.321%,–
CC(=O)NC1(c2ccc(F)cc2)CCN(Cc2cccnc2)CC1 [CBK283610],117.379%,–
O=C([C@@H]1C[C@@H](O)[C@H](O)[C@@H]2NC(=S)N(c3ccc4c(c3)OCO4)[C@@H]21)N1CCCCC1 [CBK288945],124.33%,–
